Results are given in words; binding and its absence hold for the method and conditions named. Some entries that bind do so weakly or less than the wild type. Tags and fused reporters may be left off the sequences shown.
Molecular target: T1, MreB from Fischerella muscicola PCC 7414, BACTH fusion (Fischerella muscicola PCC 7414)
T1 sequence: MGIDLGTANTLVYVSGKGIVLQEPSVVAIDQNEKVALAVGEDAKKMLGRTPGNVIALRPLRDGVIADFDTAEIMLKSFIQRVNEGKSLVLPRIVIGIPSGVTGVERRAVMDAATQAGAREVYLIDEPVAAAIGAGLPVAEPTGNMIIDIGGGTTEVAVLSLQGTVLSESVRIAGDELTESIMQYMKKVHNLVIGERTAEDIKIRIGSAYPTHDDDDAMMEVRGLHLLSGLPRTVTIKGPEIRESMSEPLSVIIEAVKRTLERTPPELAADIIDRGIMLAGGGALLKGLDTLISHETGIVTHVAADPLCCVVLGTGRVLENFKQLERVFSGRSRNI
Assay: two-hybrid; bacterial adenylate cyclase two-hybrid (BACTH) in E. coli, T25 and T18 fusions in all possible pairwise combinations, beta-galactosidase assay (Miller units per mg LacZ), three independent colonies

binding: binds
B1: FtsZ from Fischerella muscicola PCC 7414, BACTH fusion (protein, UniProt A0A2N6JXP9 1-430)
chain: MTLDNNQGLTYKNSQSPGQSTFSLAVNSTNPFNHSGLSFGQNNDSKKIEREETRIGDIVPGRVANIKVIGVGGGGSNAVNRMIASDVSGVEFWSINTDAQALTLAAAPSRLQIGQKLTRGLGAGGNPAIGTKAAEESRDEIATALDGADLVFITAGMGGGTGTGAAPIVAEVAKEMGALTVGVVTRPFIFEGRRRISQAEQGIEGLKSRVDTLIIIPNNKLLEVIPEQTPMQEAFRYADDVLRQGVQGISDIITIPGLINVDFADVRAVMADAGSALMGIGIGSGKSRAREAAIAAISSPLLECSIEGARGVVFNITGGSDLTLHEVNAAAETIYEVVDPNANIIFGAVIDDRLQGEVRLTVIATGFTGEAPAAQQSNVTQGRVVQPPPQRRPMQQPPAPNPPTQTPEPKEKGSVLDIPDFLRKRTPPRN

From publication PMC7714070, “The role of the cytoskeletal proteins MreB and FtsZ in multicellular cyanobacteria” (FEBS Open Bio, 2020)
